The target in this assay is recombinant protein phosphatase-1 catalytic subunit delta (PP1cδ). Description: saturation transfer difference NMR; 1.3-1.5 mM peptide with 13.3-14.4 µM rPP1cα or 14-15 µM rPP1cδ in D2O, 10 mM imidazole pH 6.5, 150 mM NaCl; 293 K; irradiation of PP1c resonances at -1.3 ppm; qualitative; both purified.

We go through one molecule from article PMC10003451, “Phosphorylated Peptide Derived from the Myosin Phosphatase Target Subunit Is a Novel Inhibitor of Protein Phosphatase-1” (International Journal of Molecular Sciences, 2023).

No constants are given. Whether binding was seen depends on the method and setting. A result given as binding can be weak or reduced; the word gives no strength.

For the molecule RQSRRSTQGVTL (phosphothreonine at 696 (pT696)), the binding result is reported as “binds”.
